Reference: the supplement of paper PMC5412046

Experiments:
SB.mhdgc-1 [1] = test: viability at highest tested concentration (MAXR) relative to DMSO; higher = less cytotoxic; conditions: SB.mhdgc-1 (hereditary c.1380delA CDH1 gastric cancer)
How it was run: (§1)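 The measure is viability normalised to DMSO, given as trapezoidal area under the curve or at the highest concentration. Patient-derived gastric cancer cells, hereditary or sporadic, were exposed for 48 h to compound at 11 threefold-diluted concentrations, each compound's top concentration being recorded. Luminescence was read on a ViewLux after 30 min with CellTiter-Glo at room temperature.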

SB.msgc-1 [2] = test: as above; conditions: SB.msgc-1 (sporadic gastric cancer)
How it was run: as §1

SB.mhdgc-1 [3] = test: area under the dose-response curve of % viability (trapezoidal, 11 doses) (% viability x log10 concentration); higher = less cytotoxic; conditions: SB.mhdgc-1 (hereditary c.1380delA CDH1 gastric cancer)
How it was run: as §1

SB.msgc-1 [4] = test: as above; conditions: SB.msgc-1 (sporadic gastric cancer)
How it was run: as §1

| Compound | viability (SB.mhdgc-1 [1]) [%] | viability (SB.msgc-1 [2]) [%] | area under the dose-response curve (SB.mhdgc-1 [3]) | area under the dose-response curve (SB.msgc-1 [4]) |
| --- | --- | --- | --- | --- |
| N[S+](=O)([O-])c1cc(C(=O)O)c(NCc2ccco2)cc1Cl [Furosemide] (top concentration 46.0829 µM) | 105 | 100 | 448 | 478 |
| Cc1cnc(C(=O)NCCc2ccc([S+](=O)([O-])NC(=O)NC3CCCCC3)cc2)cn1 [Glipizide] (top concentration 46.0829 µM) | 70.1 | 45.2 | 551 | 379 |
| O[C@@H]1C\C(=C/C(O)C1O)C(O)=O (stereo not given in full) [Shikimic acid] (top concentration 46.0829 µM) | 118 | 111 | 636 | 541 |
| Cc1cc(N[S+](=O)([O-])c2ccc(N)cc2)no1 [Sulfamethoxazole] (top concentration 46.0829 µM) | 83.9 | 63.9 | 520 | 473 |
| Nc1ccc([S+](N)(=O)[O-])cc1 [Sulfanilamide] (top concentration 46.0829 µM) | 105 | 118 | 579 | 567 |
